Assay results from publication PMC7862700.
Only a part is listed here, and it is no random draw. For part of these data: At the low end of the ranking the order means little. This is one part of the list. For part of these data: The exact form of the protein is not confirmed.

What was measured:
Assay in all cases: DAPPL (digital affinity profiling via proximity ligation, sequencing)
Details in all cases: 10 mM Tris-HCl pH 7.5, 50 mM NaCl, 1 mM DTT, 4% glycerol, room temperature, 30 min; GST-TFs on glutathione beads, 16-mer random dsDNA library, 0.1% …; high values mean tight binding; double strand, one strand shown; scale: fold enrichment (6-mer frequency, TF over GST control)
GABPA = biological target: T1, GABPA (UniProt Q06546)
T1 sequence: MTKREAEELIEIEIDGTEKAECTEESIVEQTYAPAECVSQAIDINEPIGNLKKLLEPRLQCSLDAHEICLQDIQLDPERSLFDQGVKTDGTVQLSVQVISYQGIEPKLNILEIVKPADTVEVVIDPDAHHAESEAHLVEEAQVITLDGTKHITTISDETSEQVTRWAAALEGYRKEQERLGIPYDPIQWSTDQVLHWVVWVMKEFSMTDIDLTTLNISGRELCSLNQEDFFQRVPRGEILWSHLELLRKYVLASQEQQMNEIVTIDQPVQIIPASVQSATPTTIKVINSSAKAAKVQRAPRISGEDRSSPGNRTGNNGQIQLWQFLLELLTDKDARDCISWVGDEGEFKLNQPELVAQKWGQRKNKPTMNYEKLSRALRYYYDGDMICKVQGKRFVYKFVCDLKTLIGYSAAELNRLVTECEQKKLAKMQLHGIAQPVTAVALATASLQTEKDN

ETS1 = biological target: T2, ETS1 (UniProt P14921)
T2 sequence: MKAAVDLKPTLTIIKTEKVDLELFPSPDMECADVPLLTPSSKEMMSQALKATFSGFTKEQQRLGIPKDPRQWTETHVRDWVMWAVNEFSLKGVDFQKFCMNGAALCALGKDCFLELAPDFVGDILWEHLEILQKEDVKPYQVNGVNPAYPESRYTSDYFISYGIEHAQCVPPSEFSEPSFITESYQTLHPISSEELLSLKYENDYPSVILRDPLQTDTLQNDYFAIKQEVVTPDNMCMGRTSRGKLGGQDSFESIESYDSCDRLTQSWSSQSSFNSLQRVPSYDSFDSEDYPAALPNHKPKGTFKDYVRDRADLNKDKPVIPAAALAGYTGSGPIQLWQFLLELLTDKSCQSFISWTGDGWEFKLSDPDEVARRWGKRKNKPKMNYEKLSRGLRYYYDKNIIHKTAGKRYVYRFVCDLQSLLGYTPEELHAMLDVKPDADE

SPDEF = biological target: T3, SPDEF (UniProt O95238)
T3 sequence: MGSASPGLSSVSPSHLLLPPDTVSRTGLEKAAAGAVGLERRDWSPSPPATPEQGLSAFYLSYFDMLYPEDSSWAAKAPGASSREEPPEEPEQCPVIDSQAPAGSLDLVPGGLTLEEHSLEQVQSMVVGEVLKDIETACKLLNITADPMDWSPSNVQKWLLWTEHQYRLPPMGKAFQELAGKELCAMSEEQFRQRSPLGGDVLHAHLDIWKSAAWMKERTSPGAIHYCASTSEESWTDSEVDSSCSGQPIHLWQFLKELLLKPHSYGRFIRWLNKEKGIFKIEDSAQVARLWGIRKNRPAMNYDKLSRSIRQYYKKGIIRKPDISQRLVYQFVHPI

Sequence | binding signal (GABPA) | binding signal (ETS1) | binding signal (SPDEF)
GCCGTT | 0.697 | 0.879 | 0.744
CGGTTG | 0.722 | 0.692 | 0.907
GACGCT | 0.8 | 0.78 | 0.742
GCAAGA | 0.842 | 0.815 | 0.877
CAGGTT | 0.669 | 0.66 | 0.629
CCGTAG | 0.875 | 0.826 | 0.834
GCTGGG | 0.806 | 0.794 | 0.765
ACCGTA | 0.903 | 0.875 | 0.878
CAGTTA | 0.741 | 0.758 | 0.811
GAGGCA | 0.462 | 0.397 | 0.402
GAGGCG | 0.435 | 0.442 | 0.382
GGCAAC | 0.945 | 0.906 | 0.829
ACACAG | 0.956 | 0.986 | 0.936
AGCGTA | 0.913 | 0.891 | 0.823
TGGGGG | 0.761 | 0.758 | 0.712
CGGGGA | 0.43 | 0.394 | 0.426
GGGGAG | 0.426 | 0.373 | 0.378
TGAGAG | 0.541 | 0.532 | 0.598
CAGGTG | 0.644 | 0.575 | 0.537
AAGAGG | 0.856 | 0.832 | 0.826
AGCACC | 0.964 | 0.865 | 0.905

20 entries from above, as tab-separated lines.
Sequence	binding signal (GABPA)	binding signal (ETS1)	binding signal (SPDEF)
GCCGTT	0.697	0.879	0.744
CGGTTG	0.722	0.692	0.907
GACGCT	0.8	0.78	0.742
GCAAGA	0.842	0.815	0.877
CAGGTT	0.669	0.66	0.629
CCGTAG	0.875	0.826	0.834
GCTGGG	0.806	0.794	0.765
ACCGTA	0.903	0.875	0.878
CAGTTA	0.741	0.758	0.811
GAGGCA	0.462	0.397	0.402
GAGGCG	0.435	0.442	0.382
GGCAAC	0.945	0.906	0.829
ACACAG	0.956	0.986	0.936
AGCGTA	0.913	0.891	0.823
TGGGGG	0.761	0.758	0.712
CGGGGA	0.43	0.394	0.426
GGGGAG	0.426	0.373	0.378
TGAGAG	0.541	0.532	0.598
CAGGTG	0.644	0.575	0.537
AAGAGG	0.856	0.832	0.826

Next part.

Sequence | binding signal (GABPA) | binding signal (ETS1) | binding signal (SPDEF)
TGGGGC | 0.817 | 0.874 | 0.776
GTGGTG | 0.911 | 0.863 | 0.888
GAGGCT | 0.629 | 0.645 | 0.561
CAGTTT | 0.904 | 0.9 | 0.836
ACGGTC | 0.792 | 0.742 | 0.749
TAGGGG | 0.916 | 0.729 | 0.817
AGACGG | 0.329 | 0.351 | 0.366
CGCAGG | 0.855 | 0.788 | 0.907
GGAGTT | 0.396 | 0.459 | 0.461
ACGGGG | 0.66 | 0.696 | 0.636
CCGTGA | 0.185 | 0.197 | 0.222
GACCCG | 0.851 | 0.882 | 0.967
CGTGCC | 0.886 | 0.876 | 0.838
GCGTAG | 0.769 | 0.779 | 0.796
CGGGAA | 0.677 | 0.713 | 0.751
GGTGAA | 0.836 | 0.81 | 0.735
GAGTAA | 0.568 | 0.564 | 0.539
CGGACA | 0.766 | 0.74 | 0.969
CAGGTC | 0.725 | 0.731 | 0.75
GCGCTG | 0.775 | 0.874 | 0.746
GGGGTA | 0.781 | 0.747 | 0.716

Random excerpt: 2 records from the list
Sequence | binding signal (GABPA) | binding signal (ETS1) | binding signal (SPDEF)
CGCAGG | 0.855 | 0.788 | 0.907
ACGGTC | 0.792 | 0.742 | 0.749

The listing continues.

Sequence | binding signal (GABPA) | binding signal (ETS1) | binding signal (SPDEF)
GTTAGG | 0.828 | 0.769 | 0.846
AGTTGT | 0.831 | 0.831 | 0.724
GTAAGG | 0.705 | 0.725 | 0.742
CGGAGG | 0.282 | 0.29 | 0.269
CACCAG | 0.699 | 0.736 | 0.713
GTAAAG | 0.908 | 0.899 | 0.887
TGGCGG | 0.75 | 0.816 | 0.703
CCTAGT | 0.949 | 0.953 | 0.951
CGTGGT | 0.511 | 0.61 | 0.554
GCGTGT | 0.515 | 0.557 | 0.577
CAGCGA | 0.811 | 0.934 | 0.861
CGGCCA | 0.825 | 0.749 | 0.842
TCAGGA | 0.832 | 0.846 | 0.89
TGACAG | 0.968 | 0.939 | 0.999
GATCAG | 0.716 | 0.759 | 0.687
ATGTCG | 0.642 | 0.616 | 0.695
GTCGCC | 0.862 | 0.878 | 0.886
AGGCGA | 0.508 | 0.528 | 0.46
GGAAAG | 0.918 | 0.851 | 0.913
GGTCGC | 0.983 | 0.835 | 0.817
GTGCAG | 0.725 | 0.757 | 0.771

Sequence | binding signal (GABPA) | binding signal (ETS1) | binding signal (SPDEF)
AGTCCG | 0.558 | 0.575 | 0.642
AGCAGT | 0.694 | 0.697 | 0.677
AAGGCG | 0.692 | 0.646 | 0.666
GTACGT | 0.856 | 0.947 | 0.869
GGCTGA | 0.848 | 0.741 | 0.765
GGGTGT | 0.663 | 0.735 | 0.789
AGGGGC | 0.745 | 0.761 | 0.695
AAGACC | 0.866 | 0.815 | 0.851
GGAGAG | 0.268 | 0.271 | 0.26
GGCAAA | 0.91 | 0.907 | 0.94
CGGGTA | 0.796 | 0.91 | 0.949
AGTAGT | 0.97 | 0.933 | 0.882
GTCGTC | 0.75 | 0.746 | 0.845
ATGGAG | 0.518 | 0.533 | 0.513
CCGTCG | 0.786 | 0.85 | 0.891
CGCAGT | 0.785 | 0.783 | 0.706
GACAGA | 0.686 | 0.696 | 0.667
ACTAGT | 0.928 | 0.87 | 0.845
AGGTTA | 0.76 | 0.787 | 0.773
GCGCGA | 0.785 | 0.804 | 0.697
GCTCGG | 0.756 | 0.715 | 0.768
